US11730769B2, “Compositions and methods for Williams Syndrome (WS) therapy” (MASSACHUSETTS INSTITUTE OF TECHNOLOGY, priority 2017, dated 2023)
Read-outs that look alike come from different tables or passages of the source.

By UniProt entry, the sequences of proteins in these tests, tags left out.
UniProt P10635, whole entry: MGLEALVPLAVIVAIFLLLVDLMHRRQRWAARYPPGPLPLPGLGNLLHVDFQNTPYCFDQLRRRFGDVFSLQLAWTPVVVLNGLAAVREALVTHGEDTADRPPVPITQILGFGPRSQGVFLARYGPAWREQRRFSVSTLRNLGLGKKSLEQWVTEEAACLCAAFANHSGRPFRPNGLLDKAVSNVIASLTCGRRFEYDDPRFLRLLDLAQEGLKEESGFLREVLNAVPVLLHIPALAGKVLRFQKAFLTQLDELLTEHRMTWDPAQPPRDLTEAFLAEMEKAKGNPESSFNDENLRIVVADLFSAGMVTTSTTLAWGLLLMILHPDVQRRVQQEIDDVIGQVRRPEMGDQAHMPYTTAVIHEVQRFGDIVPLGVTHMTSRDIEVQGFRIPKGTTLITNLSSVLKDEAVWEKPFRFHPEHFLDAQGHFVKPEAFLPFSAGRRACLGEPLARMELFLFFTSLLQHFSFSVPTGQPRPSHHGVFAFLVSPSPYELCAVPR

How the values were obtained:
Gtf2i cKO mice [1] = assay: Three-chamber social preference test; assay type: in vivo; settings: clemastine 10 mg/kg daily for 14 days
Description: Stranger mice were wildtype S129 Sv males (Jackson Laboratory) with matched age and body weight to test mice. Stranger mice were habituated by placing them inside an inverted wire cup for 30 min, two sessions per day for three consecutive days before tests. Each stranger mouse was used a maximum of two times per day. The social test apparatus was made of a clear Plexiglas box (65 cm (L)×44 cm (W)×30 cm (H)) with a removable floor and partitions dividing the box into left, center, and right chambers. The center chamber (21 cm×22 cm) was half the width of the left and right chambers (each is 21 cm×44 cm). These three chambers were interconnected with 5 cm openings between each chamber that could be closed or opened manually with a lever-operated door. The inverted wire cups containing the stranger mice were cylindrical, 10 cm in height, with a bottom diameter of 10 cm and with metal bars spaced 0.8 cm apart. A weighted cup was placed on top of the inverted wire cups to prevent the test mice from climbing onto the wire cup. […] Then, experimenter blinded to genotypes analyzed for timespent in close proximity to the stranger mouse or object was analyzed using the Noldus Ethovison XT software. Social preference index was calculated as follows: (time in close interaction with stranger)/(time in close interaction with object). […]

Gtf2i cKO mice [2] = settings: clemastine 10 mg/kg daily for 14 days, cKO mice vs cKO vehicle
[3] = absorbed from the gastrointestinal tract; cited from earlier work
cytochrome P450 CYP2D6 = cytochrome P450 CYP2D6 (Homo sapiens, UniProt P10635); settings: cited from earlier work

CN1CCCC1CCOC(C)(c1ccccc1)c1ccc(Cl)cc1 (stereo not drawn) [Clemastine]
Social preference index, three-chamber test (Gtf2i cKO mice [1]): normalize | Social preference index, three-chamber test (Gtf2i cKO mice [1]; listed as clemastine): decreased and normalized to control levels | Myelin thickness as g ratio in CC midline (Gtf2i cKO mice [2]): significantly reduced g ratio | Myelin thickness as g ratio in CC midline (Gtf2i cKO mice [2]; listed as clemastine): significantly decreased g ratio | Time to peak plasma concentrations [3]: 2 to 4 h | Inhibition of cytochrome P450 CYP2D6 (cytochrome P450 CYP2D6): inhibitor
